From PubChem BioAssay AID248 (DTP/NCI, 2004)
The list does not hold the whole screen: it gathers tests that were run many times, whatever their T/C, doses with no T/C, and many T/C values between a quarter and a half above the control. Other doses and runs of a compound stand elsewhere. T/C is the treated group as % of the vehicle group. Some entries give survivors of the animals treated and no T/C: the source holds a T/C of zero for them, seemingly a mark for toxic or unscored doses. Some doses without a T/C left all or most animals alive at the check, yet need not have been tolerated: survival well below the control is almost never listed, so the zero probably covers shortened survival too. Counts of survivors are from the toxicity check (mostly the fifth day) where no day follows; animals may have died later. Schedule codes are those of the source, read here as Q, the interval in days (D) or hours (H), X, the number of doses. Some structures stand for samples that the source files as different forms (salt, stereo form or complex); doses refer to the form tested. Some entries hold several experiments; the results are listed from low to high. Some schedule codes hold Z or #, which are not explained here. For survival time, this PubChem deposit counts one and a half times the control or more as active, and values a quarter to a half above the control carry no call in these data; other NCI protocols may use other cut-offs.

Test system: L1210 leukemia ip in BDF1 mice, survival T/C
Test: NCI In Vivo Anticancer Drug Screen. Data for tumor model L1210 Leukemia (intraperitoneal) in B6D2F1 (BDF1) mice
Conditions: T/C endpoint: mean survival time, higher T/C = longer survival
[1] = dose: 200.0 mg/kg/injection, schedule: Q01DX009 (ip), vehicle: saline
[2] = dose: 200.0 mg/kg/injection, schedule: Q04DX003 (ip), vehicle: saline
[3] = dose: 400.0 mg/kg/injection, schedule: Q04DX003 (ip), vehicle: saline
[4] = dose: 200.0 mg/kg/injection, schedule: Q01DX001 (ip), vehicle: saline
[5] = dose: 400.0 mg/kg/injection, schedule: Q01DX001 (ip), vehicle: saline

CCN(CC)CC(=O)NCC(CCCN1CCCCC1)(c1cccc2ccccc12)C(C)C (stereo unspecified)
survivor count (dose: 100.0 mg/kg/injection, schedule: Q01DX009 (ip), vehicle: saline): 0 of 6
survivor count [1]: 0 of 6
survivor count (dose: 400.0 mg/kg/injection, schedule: Q01DX009 (ip), vehicle: saline): 0 of 6

c1ccc([P+](Cc2ccco2)(c2ccccc2)c2ccccc2)cc1
survivor count (dose: 80.0 mg/kg/injection, schedule: Q01DX001 (ip), vehicle: saline): 2 of 4

COc1ccc(CNCC(=O)OCc2ccccc2)cc1
survivor count (dose: 200.0 mg/kg/injection, schedule: Q01DX009 (ip), vehicle: saline with Tween-80): 4 of 6
survivor count (dose: 400.0 mg/kg/injection, schedule: Q04DX003 (ip), vehicle: saline with Tween-80): 3 of 6

CC(O)C#CC(C)O (stereo unspecified)
survivor count (dose: 100.0 mg/kg/injection, schedule: Q04DX003 (ip), vehicle: Klucel (hydroxypropylcellulose) (HPC)): 3 of 6
survivor count (dose: 200.0 mg/kg/injection, schedule: Q04DX003 (ip), vehicle: Klucel (hydroxypropylcellulose) (HPC)): 1 of 6
survivor count (dose: 400.0 mg/kg/injection, schedule: Q04DX003 (ip), vehicle: Klucel (hydroxypropylcellulose) (HPC)): 0 of 6

CN(C)CCCn1c2ccccc2c2cnccc21
survivor count [1]: 0 of 6
survivor count [2]: 0 of 6
survivor count [3]: 0 of 6

SC1(S)CN2CCC1CC2
survivor count (dose: 25.0 mg/kg/injection, schedule: Q01DX009 (ip), vehicle: saline): 3 of 6

NC(CSS(=O)(=O)O)=NC1CCCC1
survivor count (dose: 100.0 mg/kg/injection, schedule: Q01DX001 (ip), vehicle: carboxymethylcellulose (CMC)): 1 of 6
survivor count (dose: 200.0 mg/kg/injection, schedule: Q01DX001 (ip), vehicle: carboxymethylcellulose (CMC)): 0 of 6
survivor count (dose: 400.0 mg/kg/injection, schedule: Q01DX001 (ip), vehicle: carboxymethylcellulose (CMC)): 0 of 6

Clc1ccc(-c2cc(=[N+]3CC[N+](=c4cc(-c5ccc(Cl)cc5)ss4)CC3)ss2)cc1
survivor count (dose: 400.0 mg/kg/injection, schedule: Q01DX009 (ip), vehicle: water): 3 of 6

O=NN(CCO)C(=O)Nc1ccc(NC(=O)N(CCO)N=O)cc1
survivor count (dose: 93.0 mg/kg/injection, schedule: Q01DX001 (ip), vehicle: carboxymethylcellulose (CMC)): 2 of 6
survivor count (dose: 187.0 mg/kg/injection, schedule: Q01DX001 (ip), vehicle: carboxymethylcellulose (CMC)): 1 of 6
survivor count (dose: 375.0 mg/kg/injection, schedule: Q01DX001 (ip), vehicle: carboxymethylcellulose (CMC)): 1 of 6
survivor count (dose: 500.0 mg/kg/injection, schedule: Q01DX001 (ip), vehicle: carboxymethylcellulose (CMC)): 0 of 6
survivor count (dose: 750.0 mg/kg/injection, schedule: Q01DX001 (ip), vehicle: carboxymethylcellulose (CMC)): 0 of 6
survivor count (dose: 1000.0 mg/kg/injection, schedule: Q01DX001 (ip), vehicle: carboxymethylcellulose (CMC)): 1 of 6
survivor count (dose: 1500.0 mg/kg/injection, schedule: Q01DX001 (ip), vehicle: carboxymethylcellulose (CMC)): 0 of 6

c1ccc(C2CC3c4ccccc4C2c2cccc[n+]23)nc1 (stereo unspecified)
survivor count (dose: 400.0 mg/kg/injection, schedule: Q01DX001 (ip), vehicle: Klucel (hydroxypropylcellulose) (HPC)): 1 of 6

Cc1ccc(/C=N\N=C\c2ccc(C)cc2)cc1
survivor count (dose: 400.0 mg/kg/injection, schedule: Q01DX009 (ip), vehicle: saline with Tween-80): 6 of 6

CCCCCCCCN(C)/N=N/c1nc[nH]c1C(N)=O
T/C (dose: 200.0 mg/kg/injection, schedule: Q01DX009 (ip), vehicle: Klucel (hydroxypropylcellulose) (HPC)): 131 % of control
T/C (dose: 400.0 mg/kg/injection, schedule: Q01DX009 (ip), vehicle: Klucel (hydroxypropylcellulose) (HPC)): 144 % of control

CCCc1ccc(O)c(O)c1
survivor count (dose: 80.0 mg/kg/injection, schedule: Q01DX009 (ip), vehicle: saline): 1 of 6
survivor count (dose: 100.0 mg/kg/injection, schedule: Q01DX001 (ip), vehicle: saline): 2 of 6
survivor count [4]: 0 of 6
survivor count [5]: 0 of 6

N=c1ccn(CC(O)COc2ccccc2)cc1 (stereo unspecified)
survivor count [4]: 0 of 4
survivor count [5]: 0 of 4

O=C(Nc1ccc(NC2=NCCN2)cc1)c1cc(C(=O)Nc2ccc(NC3=NCCN3)cc2)cc([N+](=O)[O-])c1
survivor count (dose: 30.0 mg/kg/injection, schedule: Q01DX Z (ip), vehicle: methylcellulose (MC)): 0 of 6
survivor count (dose: 60.0 mg/kg/injection, schedule: Q01DX Z (ip), vehicle: methylcellulose (MC)): 0 of 6
survivor count (dose: 120.0 mg/kg/injection, schedule: Q01DX Z (ip), vehicle: methylcellulose (MC)): 0 of 6

OC1CC2c3ccccc3C1c1cccc[n+]12 (stereo unspecified)
survivor count (dose: 75.0 mg/kg/injection, schedule: Q01DX009 (ip), vehicle: Klucel (hydroxypropylcellulose) (HPC)): 6 of 6
survivor count (dose: 115.0 mg/kg/injection, schedule: Q01DX009 (ip), vehicle: Klucel (hydroxypropylcellulose) (HPC)): 2 of 6
survivor count (dose: 170.0 mg/kg/injection, schedule: Q01DX009 (ip), vehicle: Klucel (hydroxypropylcellulose) (HPC)): 0 of 6
survivor count [2]: 0 of 6
survivor count [3]: 0 of 6

O=NN(CCCl)C(=O)Nc1ccc(-c2ccc(NC(=O)N(CCCl)N=O)cc2)cc1
T/C (dose: 31.0 mg/kg/injection, schedule: Q01DX001 (ip), vehicle: carboxymethylcellulose (CMC)): 125 % of control
T/C (dose: 62.0 mg/kg/injection, schedule: Q01DX001 (ip), vehicle: carboxymethylcellulose (CMC)): 132 % of control
T/C (dose: 125.0 mg/kg/injection, schedule: Q01DX001 (ip), vehicle: carboxymethylcellulose (CMC)): 134 % of control

NC1(N)Sc2nc3ccccc3nc2S1
survivor count (dose: 200.0 mg/kg/injection, schedule: Q04DX002 (ip), vehicle: saline with Tween-80): 3 of 3
survivor count (dose: 400.0 mg/kg/injection, schedule: Q04DX002 (ip), vehicle: saline with Tween-80): 0 of 3

O=C/C(Br)=C(/Br)C(=O)O
survivor count (dose: 50.0 mg/kg/injection, schedule: Q04DX002 (ip), vehicle: saline + alcohol): 2 of 3
survivor count (dose: 100.0 mg/kg/injection, schedule: Q04DX002 (ip), vehicle: saline + alcohol): 0 of 3 and 1 of 3
survivor count (dose: 200.0 mg/kg/injection, schedule: Q04DX002 (ip), vehicle: saline + alcohol): 0 of 3
survivor count (dose: 400.0 mg/kg/injection, schedule: Q04DX002 (ip), vehicle: saline + alcohol): 0 of 3

NC1(CSS(=O)(=O)O)CCN1 (stereo unspecified)
survivor count (dose: 100.0 mg/kg/injection, schedule: Q04DX002 (ip), vehicle: saline): 0 of 3
survivor count (dose: 200.0 mg/kg/injection, schedule: Q04DX002 (ip), vehicle: saline): 0 of 3
survivor count (dose: 400.0 mg/kg/injection, schedule: Q04DX002 (ip), vehicle: saline): 0 of 3

CS(=O)(=O)OCCC(COS(C)(=O)=O)S(=O)(=O)Cc1ccccc1 (stereo unspecified)
survivor count (dose: 60.0 mg/kg/injection, schedule: Q01DX001 (ip), vehicle: saline): 1 of 6
survivor count (dose: 75.0 mg/kg/injection, schedule: Q01DX001 (ip), vehicle: saline): 1 of 6
survivor count (dose: 150.0 mg/kg/injection, schedule: Q01DX001 (ip), vehicle: saline): 0 of 6
survivor count (dose: 300.0 mg/kg/injection, schedule: Q01DX001 (ip), vehicle: saline): 0 of 6

CNC1(c2ccccc2)C(=O)CC2CCC1C2 (stereo unspecified)
survivor count [2]: 1 of 6
survivor count [5]: 0 of 6

C[n+]1ccc(NC(=O)c2ccc(NC(=O)c3ccc(C(=O)Nc4ccc(C(=O)Nc5cc[n+](C)cc5)cc4)cc3)cc2)cc1
T/C (dose: 250.0 mg/kg/injection, schedule: Q01DX Z (ip), vehicle: carboxymethylcellulose (CMC)): 133 % of control

N=C(N)SC12CC3CC(CC(C3)C1)C2
survivor count (dose: 100.0 mg/kg/injection, schedule: Q04DX002 (ip), vehicle: Klucel (hydroxypropylcellulose) (HPC)): 0 of 3
survivor count (dose: 200.0 mg/kg/injection, schedule: Q04DX002 (ip), vehicle: Klucel (hydroxypropylcellulose) (HPC)): 0 of 3
survivor count (dose: 400.0 mg/kg/injection, schedule: Q04DX002 (ip), vehicle: Klucel (hydroxypropylcellulose) (HPC)): 0 of 3

CCOC(=O)NNOC(=O)CC
survivor count (dose: 400.0 mg/kg/injection, schedule: Q01DX001 (ip), vehicle: saline with Tween-80): 0 of 3

Clc1cc2c(cc1Cl)OB(c1ccccc1)O2
survivor count (dose: 400.0 mg/kg/injection, schedule: Q04DX003 (ip), vehicle: alcohol): 0 of 6
